# Reference: the supplement of paper PMC10032668
# Protein sequences, listed by entry. Tags and fused reporters are not part of them.
# GRWD1, Q9BQ67, UniProt Q9BQ67, whole entry: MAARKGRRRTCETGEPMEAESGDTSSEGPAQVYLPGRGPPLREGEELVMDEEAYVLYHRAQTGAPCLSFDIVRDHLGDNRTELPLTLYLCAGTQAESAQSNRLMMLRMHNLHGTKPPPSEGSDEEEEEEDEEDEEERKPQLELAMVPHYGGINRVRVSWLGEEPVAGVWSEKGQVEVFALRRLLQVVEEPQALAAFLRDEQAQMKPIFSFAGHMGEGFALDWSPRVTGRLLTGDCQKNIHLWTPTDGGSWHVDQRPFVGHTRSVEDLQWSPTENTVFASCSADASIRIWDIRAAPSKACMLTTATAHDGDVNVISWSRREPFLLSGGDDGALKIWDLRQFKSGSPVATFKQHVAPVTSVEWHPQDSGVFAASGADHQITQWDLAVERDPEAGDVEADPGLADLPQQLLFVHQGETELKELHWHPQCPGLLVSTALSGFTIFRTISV
# KPNA1, P52294, UniProt P52294, whole entry: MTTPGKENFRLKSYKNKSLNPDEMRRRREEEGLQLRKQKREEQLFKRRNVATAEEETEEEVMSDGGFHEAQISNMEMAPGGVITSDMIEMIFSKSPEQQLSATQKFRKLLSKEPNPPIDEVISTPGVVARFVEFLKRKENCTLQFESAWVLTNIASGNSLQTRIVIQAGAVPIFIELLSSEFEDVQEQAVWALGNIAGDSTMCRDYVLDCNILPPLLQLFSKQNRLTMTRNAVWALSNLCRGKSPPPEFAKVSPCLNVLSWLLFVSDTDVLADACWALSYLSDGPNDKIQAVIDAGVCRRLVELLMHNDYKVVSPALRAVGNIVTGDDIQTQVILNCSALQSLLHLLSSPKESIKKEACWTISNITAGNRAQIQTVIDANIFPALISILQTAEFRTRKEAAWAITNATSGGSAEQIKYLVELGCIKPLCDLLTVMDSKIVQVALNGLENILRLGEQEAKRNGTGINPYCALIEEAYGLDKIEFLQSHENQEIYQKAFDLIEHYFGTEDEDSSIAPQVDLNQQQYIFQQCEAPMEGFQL
# MTHFD1L, Q6UB35, UniProt Q6UB35, whole entry: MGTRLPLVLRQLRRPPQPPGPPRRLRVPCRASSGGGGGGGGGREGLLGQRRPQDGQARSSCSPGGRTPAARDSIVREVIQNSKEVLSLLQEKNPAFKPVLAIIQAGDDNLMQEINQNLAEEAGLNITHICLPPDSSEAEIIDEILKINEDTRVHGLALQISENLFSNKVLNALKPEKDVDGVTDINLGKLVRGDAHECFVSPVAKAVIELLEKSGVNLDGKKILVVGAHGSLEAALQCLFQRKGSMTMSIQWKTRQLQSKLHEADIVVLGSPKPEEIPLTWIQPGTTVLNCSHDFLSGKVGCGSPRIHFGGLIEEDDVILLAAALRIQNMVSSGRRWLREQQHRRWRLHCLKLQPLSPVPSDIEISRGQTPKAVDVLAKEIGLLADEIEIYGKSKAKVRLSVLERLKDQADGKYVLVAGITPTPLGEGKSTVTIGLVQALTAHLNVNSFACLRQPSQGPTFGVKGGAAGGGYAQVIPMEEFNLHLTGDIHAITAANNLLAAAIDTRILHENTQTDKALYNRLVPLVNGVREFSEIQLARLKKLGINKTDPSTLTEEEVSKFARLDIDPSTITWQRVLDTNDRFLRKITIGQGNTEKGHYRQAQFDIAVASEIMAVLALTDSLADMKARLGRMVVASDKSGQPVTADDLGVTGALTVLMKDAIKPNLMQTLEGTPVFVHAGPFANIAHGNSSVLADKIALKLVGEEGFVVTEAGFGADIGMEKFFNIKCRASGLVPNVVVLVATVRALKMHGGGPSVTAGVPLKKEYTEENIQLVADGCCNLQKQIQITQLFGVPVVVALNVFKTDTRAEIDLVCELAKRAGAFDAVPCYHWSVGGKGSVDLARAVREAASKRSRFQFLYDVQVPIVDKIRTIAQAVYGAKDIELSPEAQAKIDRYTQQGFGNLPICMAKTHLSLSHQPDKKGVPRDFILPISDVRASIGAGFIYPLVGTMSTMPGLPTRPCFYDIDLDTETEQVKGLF
# ATP6V1A, P38606, UniProt P38606, whole entry: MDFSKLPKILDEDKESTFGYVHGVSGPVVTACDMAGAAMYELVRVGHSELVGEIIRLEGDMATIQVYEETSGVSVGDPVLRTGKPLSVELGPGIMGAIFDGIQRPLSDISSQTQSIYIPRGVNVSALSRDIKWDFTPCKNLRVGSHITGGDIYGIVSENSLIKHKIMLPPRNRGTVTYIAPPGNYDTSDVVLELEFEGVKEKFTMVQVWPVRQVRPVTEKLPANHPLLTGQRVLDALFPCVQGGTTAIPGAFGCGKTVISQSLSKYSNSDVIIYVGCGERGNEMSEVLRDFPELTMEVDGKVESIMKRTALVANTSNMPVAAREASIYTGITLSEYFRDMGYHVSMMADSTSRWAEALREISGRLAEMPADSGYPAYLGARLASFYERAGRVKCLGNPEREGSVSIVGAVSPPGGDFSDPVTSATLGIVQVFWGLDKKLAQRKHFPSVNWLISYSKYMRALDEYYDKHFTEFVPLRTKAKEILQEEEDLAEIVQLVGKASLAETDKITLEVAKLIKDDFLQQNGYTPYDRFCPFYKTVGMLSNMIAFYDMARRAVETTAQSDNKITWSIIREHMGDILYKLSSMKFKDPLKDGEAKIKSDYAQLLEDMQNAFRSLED
# GTF2F2, P13984, UniProt P13984, whole entry: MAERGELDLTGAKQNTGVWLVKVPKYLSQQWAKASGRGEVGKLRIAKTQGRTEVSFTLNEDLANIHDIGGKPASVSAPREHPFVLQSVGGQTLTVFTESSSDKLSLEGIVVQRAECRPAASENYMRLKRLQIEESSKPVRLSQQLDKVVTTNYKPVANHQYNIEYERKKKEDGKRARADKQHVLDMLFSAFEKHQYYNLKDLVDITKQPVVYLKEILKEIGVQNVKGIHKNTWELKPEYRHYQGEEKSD
# INTS7, Q9NVH2, UniProt Q9NVH2, whole entry: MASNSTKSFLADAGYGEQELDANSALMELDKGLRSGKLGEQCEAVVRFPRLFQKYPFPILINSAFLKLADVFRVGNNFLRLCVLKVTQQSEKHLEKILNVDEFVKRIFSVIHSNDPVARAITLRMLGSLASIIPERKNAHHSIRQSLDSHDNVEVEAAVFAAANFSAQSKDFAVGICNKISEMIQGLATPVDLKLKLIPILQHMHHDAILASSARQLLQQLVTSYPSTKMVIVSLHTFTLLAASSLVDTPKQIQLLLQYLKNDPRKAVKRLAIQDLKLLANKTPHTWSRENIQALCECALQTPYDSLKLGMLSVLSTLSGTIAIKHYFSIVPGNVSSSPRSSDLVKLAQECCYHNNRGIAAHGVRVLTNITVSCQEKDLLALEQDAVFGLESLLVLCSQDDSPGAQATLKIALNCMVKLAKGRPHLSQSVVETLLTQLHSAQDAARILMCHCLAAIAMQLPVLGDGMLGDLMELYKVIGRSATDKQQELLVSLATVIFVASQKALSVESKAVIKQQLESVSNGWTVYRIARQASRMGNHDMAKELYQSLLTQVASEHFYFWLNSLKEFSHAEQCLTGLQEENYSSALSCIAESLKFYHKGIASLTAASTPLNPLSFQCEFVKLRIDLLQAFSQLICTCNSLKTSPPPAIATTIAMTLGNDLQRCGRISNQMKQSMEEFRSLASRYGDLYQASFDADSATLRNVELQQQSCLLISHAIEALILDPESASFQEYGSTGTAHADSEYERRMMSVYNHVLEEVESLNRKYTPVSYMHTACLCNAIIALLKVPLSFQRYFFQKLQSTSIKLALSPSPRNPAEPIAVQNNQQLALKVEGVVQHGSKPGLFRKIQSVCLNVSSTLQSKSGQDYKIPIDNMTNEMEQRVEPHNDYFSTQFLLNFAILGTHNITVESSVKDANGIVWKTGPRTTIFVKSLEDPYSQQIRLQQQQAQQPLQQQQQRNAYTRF
# MEN1, O00255, UniProt O00255, whole entry: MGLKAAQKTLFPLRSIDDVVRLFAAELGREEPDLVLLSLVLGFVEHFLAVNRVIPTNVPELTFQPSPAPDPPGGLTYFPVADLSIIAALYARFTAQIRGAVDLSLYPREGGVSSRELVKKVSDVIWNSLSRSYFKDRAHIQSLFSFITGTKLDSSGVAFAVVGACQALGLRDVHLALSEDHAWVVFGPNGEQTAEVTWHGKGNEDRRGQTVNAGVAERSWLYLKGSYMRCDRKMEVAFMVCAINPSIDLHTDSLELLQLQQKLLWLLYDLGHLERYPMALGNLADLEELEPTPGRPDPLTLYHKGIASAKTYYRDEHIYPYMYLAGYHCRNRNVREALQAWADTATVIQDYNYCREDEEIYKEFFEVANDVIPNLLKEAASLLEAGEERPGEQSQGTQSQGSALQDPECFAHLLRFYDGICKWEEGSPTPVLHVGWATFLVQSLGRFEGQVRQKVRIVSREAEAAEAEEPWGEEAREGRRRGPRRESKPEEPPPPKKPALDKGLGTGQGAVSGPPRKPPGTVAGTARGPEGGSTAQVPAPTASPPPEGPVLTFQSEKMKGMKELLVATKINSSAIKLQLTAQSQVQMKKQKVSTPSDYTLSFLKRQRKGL
# EIF2B1, Q14232, UniProt Q14232, whole entry: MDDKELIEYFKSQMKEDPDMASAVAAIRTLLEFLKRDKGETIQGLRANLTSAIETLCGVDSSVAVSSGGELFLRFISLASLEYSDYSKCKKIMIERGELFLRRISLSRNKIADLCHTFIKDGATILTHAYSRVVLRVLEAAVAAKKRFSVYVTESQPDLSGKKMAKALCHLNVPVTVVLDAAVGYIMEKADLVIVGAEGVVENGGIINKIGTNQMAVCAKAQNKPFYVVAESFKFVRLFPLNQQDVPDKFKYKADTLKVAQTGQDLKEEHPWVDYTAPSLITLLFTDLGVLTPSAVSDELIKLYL
# TPM4, P67936, UniProt P67936, whole entry: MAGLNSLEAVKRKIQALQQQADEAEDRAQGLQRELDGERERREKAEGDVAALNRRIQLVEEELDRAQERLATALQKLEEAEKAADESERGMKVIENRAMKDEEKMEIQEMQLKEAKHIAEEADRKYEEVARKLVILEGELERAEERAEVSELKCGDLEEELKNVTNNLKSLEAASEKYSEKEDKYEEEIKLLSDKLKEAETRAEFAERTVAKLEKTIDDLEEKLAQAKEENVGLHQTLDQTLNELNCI
# TUBB6, Q9BUF5, UniProt Q9BUF5, whole entry: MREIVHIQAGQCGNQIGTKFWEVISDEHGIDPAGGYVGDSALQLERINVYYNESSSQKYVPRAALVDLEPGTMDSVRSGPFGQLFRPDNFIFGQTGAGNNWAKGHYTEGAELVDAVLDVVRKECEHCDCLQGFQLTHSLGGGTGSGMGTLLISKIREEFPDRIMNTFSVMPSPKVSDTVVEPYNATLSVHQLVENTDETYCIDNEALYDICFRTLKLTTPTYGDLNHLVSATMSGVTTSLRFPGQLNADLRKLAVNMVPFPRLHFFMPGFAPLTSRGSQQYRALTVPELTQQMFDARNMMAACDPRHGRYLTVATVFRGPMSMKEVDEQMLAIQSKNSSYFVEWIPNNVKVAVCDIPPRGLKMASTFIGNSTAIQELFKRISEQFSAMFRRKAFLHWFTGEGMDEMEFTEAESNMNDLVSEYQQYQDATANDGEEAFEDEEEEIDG
# UNG, P13051, UniProt P13051, whole entry: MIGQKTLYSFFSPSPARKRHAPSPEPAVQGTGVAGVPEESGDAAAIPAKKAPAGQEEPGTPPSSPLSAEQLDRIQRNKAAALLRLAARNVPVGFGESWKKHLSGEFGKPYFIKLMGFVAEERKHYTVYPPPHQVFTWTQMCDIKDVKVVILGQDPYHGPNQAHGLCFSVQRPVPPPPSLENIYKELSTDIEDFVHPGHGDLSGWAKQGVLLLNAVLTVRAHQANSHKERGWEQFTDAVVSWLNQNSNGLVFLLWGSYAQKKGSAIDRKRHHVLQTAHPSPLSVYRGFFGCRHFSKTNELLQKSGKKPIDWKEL
# EIF3K, Q9UBQ5, UniProt Q9UBQ5, whole entry: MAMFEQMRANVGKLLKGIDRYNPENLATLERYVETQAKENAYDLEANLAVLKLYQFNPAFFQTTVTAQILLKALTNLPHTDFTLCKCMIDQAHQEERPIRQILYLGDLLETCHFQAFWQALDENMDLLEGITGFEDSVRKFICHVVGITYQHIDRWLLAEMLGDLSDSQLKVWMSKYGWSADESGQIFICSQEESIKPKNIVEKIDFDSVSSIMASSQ
# The other results are listed elsewhere or left out. The list holds hits alone, and they repeat only in part.
# Assays:
# Experiment in all cases: PRISMA enrichment of interactor (LFQ) in peptide spot vs all other peptide spots (log2 fold change); higher = stronger / more specific binding of the interactor to the peptide
# [1] = biological target: APOB, P04114
# Method: (§1)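 PRISMA: 15-aa overlapping tiles (offset 8 aa) of 60 microproteins, plus SOS1/GLUT1 control peptides, were spot-synthesized on cellulose membranes in triplicate. Membranes were incubated with benzonase-treated HEK293T lysate, and bound proteins were identified by LC-MS/MS with LFQ. Enrichment is the log2 fold change of each protein in one spot versus all other spots. Only interactors passing the significance cutoff are listed.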
# [2] = biological target: ARMC6, Q6NXE6
# Method: as §1
# [3] = biological target: CCT2, P78371
# Method: as §1
# [4] = biological target: EIF2B3, Q9NR50
# Method: as §1
# [5] = biological target: GALK1, P51570
# Method: as §1
# [6] = biological target: GAPVD1, Q14C86
# Method: as §1
# [7] = biological target: GHITM, Q9H3K2
# Method: as §1
# [8] = biological target: GRWD1, Q9BQ67
# Method: as §1
# [9] = biological target: HNRNPH2, P55795
# Method: as §1
# [10] = biological target: KPNA1, P52294
# Method: as §1
# [11] = biological target: MCM4, P33991
# Method: as §1
# [12] = biological target: MEPCE, Q7L2J0
# Method: as §1
# [13] = biological target: MRPL14, Q6P1L8
# Method: as §1
# [14] = biological target: MRPL22, Q9NWU5
# Method: as §1
# [15] = biological target: MRPL34, Q9BQ48
# Method: as §1
# [16] = biological target: MTHFD1L, Q6UB35
# Method: as §1
# [17] = biological target: NASP, P49321
# Method: as §1
# [18] = biological target: PCYT1A, P49585
# Method: as §1
# [19] = biological target: POLR2B, P30876
# Method: as §1
# [20] = biological target: PTCD3, Q96EY7
# Method: as §1
# [21] = biological target: RBM15, Q96T37
# Method: as §1
# [22] = biological target: SERF2, P84101
# Method: as §1
# [23] = biological target: SLC25A24, Q6NUK1
# Method: as §1
# [24] = biological target: SRSF7, Q16629
# Method: as §1
# [25] = biological target: TNPO3, Q9Y5L0
# Method: as §1
# [26] = biological target: TOMM5, Q8N4H5
# Method: as §1
# [27] = biological target: UTP14A, Q9BVJ6
# Method: as §1
# [28] = biological target: ATP6V1A, P38606
# Method: as §1
# [29] = biological target: CTBP2, P56545
# Method: as §1
# [30] = biological target: FAR1, Q8WVX9
# Method: as §1
# [31] = biological target: GIGYF2, Q6Y7W6
# Method: as §1
# [32] = biological target: GTF2F2, P13984
# Method: as §1
# [33] = biological target: HLA-B
# Method: as §1
# [34] = biological target: INTS7, Q9NVH2
# Method: as §1
# [35] = biological target: MEN1, O00255
# Method: as §1
# [36] = biological target: MRFAP1, Q9Y605
# Method: as §1
# [37] = biological target: MRPL11, Q9Y3B7
# Method: as §1
# [38] = biological target: OGFR, Q9NZT2
# Method: as §1
# [39] = biological target: RO60, P10155
# Method: as §1
# [40] = biological target: TMEM256-PLSCR3
# Method: as §1
# [41] = biological target: UBE2M, P61081
# Method: as §1
# [42] = biological target: USP15, Q9Y4E8
# Method: as §1
# [43] = biological target: ZNF503, Q96F45
# Method: as §1
# [44] = biological target: ZNF622, Q969S3
# Method: as §1
# [45] = biological target: APRT, P07741
# Method: as §1
# [46] = biological target: ARF1, P84077
# Method: as §1
# [47] = biological target: CDC42EP1, Q00587
# Method: as §1
# [48] = biological target: CDCA7L, Q96GN5
# Method: as §1
# [49] = biological target: CMAS, Q8NFW8
# Method: as §1
# [50] = substrate: CNP, P09543
# Method: as §1
# [51] = biological target: COPS4, Q9BT78
# Method: as §1
# [52] = biological target: DDX18, Q9NVP1
# Method: as §1
# [53] = biological target: EHD1, Q9H4M9
# Method: as §1
# [54] = biological target: EHD4, Q9H223
# Method: as §1
# [55] = biological target: EIF2B1, Q14232
# Method: as §1
# [56] = biological target: ELOA, Q14241
# Method: as §1
# [57] = biological target: FUBP3, Q96I24
# Method: as §1
# [58] = biological target: GTF3C3, Q9Y5Q9
# Method: as §1
# [59] = biological target: HNRNPR, O43390
# Method: as §1
# [60] = biological target: PPP1R2, P41236
# Method: as §1
# [61] = biological target: PSMA4, P25789
# Method: as §1
# [62] = biological target: RNH1, P13489
# Method: as §1
# [63] = biological target: RPN2, P04844
# Method: as §1
# [64] = biological target: SHROOM3, Q8TF72
# Method: as §1
# [65] = biological target: TOMM6, Q96B49
# Method: as §1
# [66] = biological target: TPM4, P67936
# Method: as §1
# [67] = biological target: TRA2A, Q13595
# Method: as §1
# [68] = biological target: TUBB6, Q9BUF5
# Method: as §1
# [69] = biological target: UNG, P13051
# Method: as §1
# [70] = biological target: AQR, O60306
# Method: as §1
# [71] = biological target: ARGLU1, Q9NWB6
# Method: as §1
# [72] = biological target: CSNK2A1, P68400
# Method: as §1
# [73] = biological target: EIF3K, Q9UBQ5
# Method: as §1
# [74] = biological target: HDGFL2, Q7Z4V5
# Method: as §1
# [75] = biological target: KIF2A, O00139
# Method: as §1
# [76] = biological target: NCAPG2, Q86XI2
# Method: as §1
# [77] = biological target: NCOA5, Q9HCD5
# Method: as §1
# [78] = biological target: NOC4L, Q9BVI4
# Method: as §1
# [79] = biological target: NOL9, Q5SY16
# Method: as §1
# [80] = biological target: POLR2A, P24928
# Method: as §1
# [81] = biological target: PRPS2, P11908
# Method: as §1
# [82] = biological target: RBM17, Q96I25
# Method: as §1
# [83] = biological target: RCN2, Q14257
# Method: as §1
# [84] = biological target: hCG_2014768
# Method: as §1
binder,measurement,setting,value
MLTAEVRTGRRLITP [PDZRN3-AS1],PRISMA enrichment of interactor (log2),[1],10.6
same,PRISMA enrichment of interactor (log2),[2],5.32
same,PRISMA enrichment of interactor (log2),[3],6.33
same,PRISMA enrichment of interactor (log2),[4],4.39
same,PRISMA enrichment of interactor (log2),[5],8.68
same,PRISMA enrichment of interactor (log2),[6],5.3
same,PRISMA enrichment of interactor (log2),[7],6.47
same,PRISMA enrichment of interactor (log2),[8],5.34
same,PRISMA enrichment of interactor (log2),[9],8.69
same,PRISMA enrichment of interactor (log2),[10],6.63
same,PRISMA enrichment of interactor (log2),[11],5.31
same,PRISMA enrichment of interactor (log2),[12],7.23
same,PRISMA enrichment of interactor (log2),[13],4.56
same,PRISMA enrichment of interactor (log2),[14],4.72
same,PRISMA enrichment of interactor (log2),[15],5.09
same,PRISMA enrichment of interactor (log2),[16],9.46
same,PRISMA enrichment of interactor (log2),[17],5.03
same,PRISMA enrichment of interactor (log2),[18],4.61
same,PRISMA enrichment of interactor (log2),[19],6.34
same,PRISMA enrichment of interactor (log2),[20],4.85
same,PRISMA enrichment of interactor (log2),[21],4.31
same,PRISMA enrichment of interactor (log2),[22],4.69
same,PRISMA enrichment of interactor (log2),[23],7.61
same,PRISMA enrichment of interactor (log2),[24],5.52
same,PRISMA enrichment of interactor (log2),[25],5.08
same,PRISMA enrichment of interactor (log2),[26],5.08
same,PRISMA enrichment of interactor (log2),[27],4.74
PGKHAASKAAFLREI [EBAG9],PRISMA enrichment of interactor (log2),[1],4.18
same,PRISMA enrichment of interactor (log2),[28],5.41
same,PRISMA enrichment of interactor (log2),[29],5.01
same,PRISMA enrichment of interactor (log2),[30],4.42
same,PRISMA enrichment of interactor (log2),[31],5.41
same,PRISMA enrichment of interactor (log2),[32],5.29
same,PRISMA enrichment of interactor (log2),[33],5.47
same,PRISMA enrichment of interactor (log2),[34],5.45
same,PRISMA enrichment of interactor (log2),[35],4.51
same,PRISMA enrichment of interactor (log2),[36],5.82
same,PRISMA enrichment of interactor (log2),[37],4.41
same,PRISMA enrichment of interactor (log2),[38],3.87
same,PRISMA enrichment of interactor (log2),[39],5.64
same,PRISMA enrichment of interactor (log2),[40],5.57
same,PRISMA enrichment of interactor (log2),[41],6.77
same,PRISMA enrichment of interactor (log2),[42],4.13
same,PRISMA enrichment of interactor (log2),[43],4.62
same,PRISMA enrichment of interactor (log2),[44],7.5
DMLPNGAVGSLTQLG,PRISMA enrichment of interactor (log2),[45],4.54
same,PRISMA enrichment of interactor (log2),[46],5.88
same,PRISMA enrichment of interactor (log2),[47],3.88
same,PRISMA enrichment of interactor (log2),[48],5.71
same,PRISMA enrichment of interactor (log2),[49],6.37
same,PRISMA enrichment of interactor (log2),[50],5.8
same,PRISMA enrichment of interactor (log2),[51],5.65
same,PRISMA enrichment of interactor (log2),[52],5.01
same,PRISMA enrichment of interactor (log2),[53],4.88
same,PRISMA enrichment of interactor (log2),[54],5.53
same,PRISMA enrichment of interactor (log2),[55],4.46
same,PRISMA enrichment of interactor (log2),[56],5.21
same,PRISMA enrichment of interactor (log2),[57],5.96
same,PRISMA enrichment of interactor (log2),[58],8.82
same,PRISMA enrichment of interactor (log2),[59],8.22
same,PRISMA enrichment of interactor (log2),[10],6.38
same,PRISMA enrichment of interactor (log2),[14],6.38
same,PRISMA enrichment of interactor (log2),[60],6.48
same,PRISMA enrichment of interactor (log2),[61],6.36
same,PRISMA enrichment of interactor (log2),[62],11.6
same,PRISMA enrichment of interactor (log2),[63],5.25
same,PRISMA enrichment of interactor (log2),[64],10.7
same,PRISMA enrichment of interactor (log2),[65],5.7
same,PRISMA enrichment of interactor (log2),[66],5.16
same,PRISMA enrichment of interactor (log2),[67],4.6
same,PRISMA enrichment of interactor (log2),[68],6.9
same,PRISMA enrichment of interactor (log2),[41],6.37
same,PRISMA enrichment of interactor (log2),[69],7.26
LLQERGKAAEFYSRG,PRISMA enrichment of interactor (log2),[70],4.33
same,PRISMA enrichment of interactor (log2),[71],5.16
same,PRISMA enrichment of interactor (log2),[72],5.41
same,PRISMA enrichment of interactor (log2),[73],4.49
same,PRISMA enrichment of interactor (log2),[74],5.18
same,PRISMA enrichment of interactor (log2),[75],6.25
same,PRISMA enrichment of interactor (log2),[76],4.92
same,PRISMA enrichment of interactor (log2),[77],6.75
same,PRISMA enrichment of interactor (log2),[78],4.31
same,PRISMA enrichment of interactor (log2),[79],4.27
same,PRISMA enrichment of interactor (log2),[80],6.02
same,PRISMA enrichment of interactor (log2),[81],4.27
same,PRISMA enrichment of interactor (log2),[82],6.43
same,PRISMA enrichment of interactor (log2),[83],4.98
same,PRISMA enrichment of interactor (log2),[84],7.08

# For reference, some entries already given:
binder,measurement,setting,value
PGKHAASKAAFLREI [EBAG9],PRISMA enrichment of interactor (log2),[33],5.47
same,PRISMA enrichment of interactor (log2),[34],5.45
same,PRISMA enrichment of interactor (log2),[35],4.51
same,PRISMA enrichment of interactor (log2),[36],5.82
same,PRISMA enrichment of interactor (log2),[37],4.41
